Laboratory results reported in patent publication US6461833B1, “Method to detect bacteria” (priority 1995, dated 2002).
At least one compound was matched to its structure with a doubt left.

Key:
BCG = assay type: cell-based, M. tuberculosis; settings: all concentrations of rifampicin
Mycobacterium smegmatis = assay type: cell-based

Compound: CO[C@H]1/C=C/O[C@@]2(C)Oc3c(C)c(O)c4c(O)c(c(/C=N/N5CCN(C)CC5)c(O)c4c3C2=O)NC(=O)/C(C)=C\C=C\[C@H](C)[C@H](O)[C@@H](C)[C@@H](O)[C@@H](C)[C@H](OC(C)=O)[C@@H]1C [Rifampicin, rifampicin]
- numbers of plaques versus background (heat killed samples) (BCG): not significantly above background levels
- change in numbers of plaques (Mycobacterium smegmatis; as the concentration of rifampicin is increased): progressive reduction in the numbers of plaques
- susceptibility judged from numbers of plaques (Mycobacterium smegmatis; lowest rifampicin concentration): resistant to low concentrations of rifampicin
